# This is one part of the list.
# Assays:
# Experiment in all cases: glycan array binding signal (z-score within array); higher = stronger binding
# Details in all cases: glycan notation: IUPAC condensed, linker removed
# [1] = biological target: Gal(a1-3)Gal(b1-3)GlcNAc(b1-6)GalNAc
# How it was run: (§1)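 Glycan array data came from 3228 arrays in the Consortium for Functional Glycomics database, and only arrays with an available protein sequence were kept. Glycan names were put into IUPAC-condensed notation, and columns mapping to the same glycan were averaged. The binding signal is a within-array Z-score, averaged across arrays of one protein sequence run at different concentrations or buffers and across linkers. A negative Z-score can be read as non-binding.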
# [2] = biological target: Gal(a1-3)Gal(b1-3)[Fuc(a1-4)]GlcNAc(b1-2)Man(a1-3)[Gal(a1-3)Gal(b1-3)[Fuc(a1-4)]GlcNAc(b1-2)Man(a1-6)]Man(b1-4)GlcNAc(b1-4)GlcNAc
# How it was run: as §1
# [3] = biological target: Gal(a1-3)Gal(b1-4)Glc
# How it was run: as §1
# [4] = biological target: Gal(a1-3)Gal(b1-4)GlcNAc
# How it was run: as §1
# [5] = biological target: Gal(a1-3)Gal(b1-4)GlcNAc(b1-2)Man
# How it was run: as §1
# [6] = biological target: Gal(a1-3)Gal(b1-4)GlcNAc(b1-2)Man(a1-3)[Gal(a1-3)Gal(b1-4)GlcNAc(b1-2)Man(a1-6)]Man(b1-4)GlcNAc(b1-4)GlcNAc
# How it was run: as §1
# [7] = biological target: Gal(a1-3)Gal(b1-4)GlcNAc(b1-3)GalNAc
# How it was run: as §1
# [8] = biological target: Gal(a1-3)Gal(b1-4)GlcNAc(b1-6)GalNAc
# How it was run: as §1
# [9] = biological target: Gal(a1-3)Gal(b1-4)[Fuc(a1-3)]GlcNAc
# How it was run: as §1
# [10] = biological target: Gal(a1-3)Gal(b1-4)[Fuc(a1-3)]GlcNAc(b1-2)Man(a1-3)[Gal(a1-3)Gal(b1-4)[Fuc(a1-3)]GlcNAc(b1-2)Man(a1-6)]Man(b1-4)GlcNAc(b1-4)GlcNAc
# How it was run: as §1
# [11] = biological target: Gal(a1-3)GalNAc
# How it was run: as §1
# [12] = biological target: Gal(a1-3)[Gal(a1-4)]Gal(b1-4)GlcNAc
# How it was run: as §1
# [13] = biological target: Gal(a1-4)Gal(b1-3)GlcNAc(b1-2)Man(a1-3)[Gal(a1-4)Gal(b1-3)GlcNAc(b1-2)Man(a1-6)]Man(b1-4)GlcNAc(b1-4)GlcNAc
# How it was run: as §1
# [14] = biological target: Gal(a1-4)Gal(b1-4)Glc
# How it was run: as §1
# [15] = biological target: Gal(a1-4)Gal(b1-4)GlcNAc
# How it was run: as §1
# [16] = biological target: Gal(a1-4)Gal(b1-4)GlcNAc(b1-2)Man(a1-3)[Gal(a1-4)Gal(b1-4)GlcNAc(b1-2)Man(a1-6)]Man(b1-4)GlcNAc(b1-4)GlcNAc
# How it was run: as §1
# [17] = biological target: Gal(a1-4)Gal(b1-4)GlcNAc(b1-3)Gal(b1-4)Glc
# How it was run: as §1
# [18] = biological target: Gal(a1-4)GlcNAc
# How it was run: as §1
# [19] = biological target: Gal(a1-6)Glc
# How it was run: as §1
# [20] = biological target: Gal(b1-2)Gal
# How it was run: as §1
# [21] = biological target: Gal(b1-3)Gal
# How it was run: as §1
# [22] = biological target: Gal(b1-3)Gal(b1-4)GlcNAc
# How it was run: as §1
# [23] = biological target: Gal(b1-3)Gal(b1-4)GlcNAc(b1-2)Man(a1-3)[Gal(b1-3)Gal(b1-4)GlcNAc(b1-2)Man(a1-6)]Man(b1-4)GlcNAc(b1-4)GlcNAc
# How it was run: as §1
# [24] = biological target: Gal(b1-3)GalNAc
# How it was run: as §1
# [25] = biological target: Gal(b1-3)GalNAc(a1-3)[Fuc(a1-2)]Gal(b1-4)Glc
# How it was run: as §1
# [26] = biological target: Gal(b1-3)GalNAc(a1-3)[Fuc(a1-2)]Gal(b1-4)GlcNAc
# How it was run: as §1
# [27] = biological target: Gal(b1-3)GalNAc(b1-3)Gal
# How it was run: as §1
# [28] = biological target: Gal(b1-3)GalNAc(b1-3)Gal(a1-4)Gal(b1-4)Glc
# How it was run: as §1
# [29] = biological target: Gal(b1-3)GalNAc(b1-4)Gal(b1-4)Glc
# How it was run: as §1
# [30] = biological target: Gal(b1-3)GalNAc(b1-4)[Neu5Ac(a2-3)]Gal(b1-4)Glc
# How it was run: as §1
# [31] = biological target: Gal(b1-3)GlcNAc
# How it was run: as §1
# [32] = biological target: Gal(b1-3)GlcNAc(a1-3)Gal(b1-4)GlcNAc
# How it was run: as §1
# [33] = biological target: Gal(b1-3)GlcNAc(a1-6)Gal(b1-4)GlcNAc
# How it was run: as §1
# [34] = biological target: Gal(b1-3)GlcNAc(b1-2)Man
# How it was run: as §1
# [35] = biological target: Gal(b1-3)GlcNAc(b1-2)Man(a1-3)[Gal(b1-3)GlcNAc(b1-2)Man(a1-6)]Man(b1-4)GlcNAc(b1-4)GlcNAc
# How it was run: as §1
# [36] = biological target: Gal(b1-3)GlcNAc(b1-2)Man(a1-3)[Gal(b1-3)GlcNAc(b1-2)Man(a1-6)]Man(b1-4)GlcNAc(b1-4)[Fuc(a1-6)]GlcNAc
# How it was run: as §1
# [37] = biological target: Gal(b1-3)GlcNAc(b1-2)Man(a1-3)[GlcNAc(b1-4)][Gal(b1-3)GlcNAc(b1-2)Man(a1-6)]Man(b1-4)GlcNAc(b1-4)GlcNAc
# How it was run: as §1
# [38] = biological target: Gal(b1-3)GlcNAc(b1-2)[Gal(b1-3)GlcNAc(b1-6)]Man(a1-6)[Gal(b1-3)GlcNAc(b1-2)Man(a1-3)]Man(b1-4)GlcNAc(b1-4)GlcNAc
# How it was run: as §1
binder,measurement,setting,value
"LlpA1 (Pseudomonas fluorescens), Q4KHC3 (protein) MGSSHHHHHHSSGLVPRGSHMAWIRYDFTDNGSSVLPARYYMAPNQYLQSPNKRFKLLFQADGNLALYDGAQLAWVADQNTPFTNVSKGNKKDPMMVFMNYGFVLDDPLRGRIWSTTPSDPTMGSREDASLRAFTQVQDDGNIVTVDTIPHWYAPNGRVFTPAVGAAMIIGGTTELVPGQFYSAGEHSLVFQGDGNLVVYGPNSSVIWATYTQNKGGVRCVMQEDGNLVIYAANNGVVWQSGTGGHPGATIRLQANGSFTIVTERPVWARFGYTPTIKPPRVFYPDHKWKTGSYTWNNVF",glycan array binding signal (z-score),[1],-0.107
same,glycan array binding signal (z-score),[2],0.95
same,glycan array binding signal (z-score),[3],-0.111
same,glycan array binding signal (z-score),[4],-0.425
same,glycan array binding signal (z-score),[5],-0.521
same,glycan array binding signal (z-score),[6],0.803
same,glycan array binding signal (z-score),[7],-0.077
same,glycan array binding signal (z-score),[8],0.065
same,glycan array binding signal (z-score),[9],-0.732
same,glycan array binding signal (z-score),[10],0.98
same,glycan array binding signal (z-score),[11],-0.274
same,glycan array binding signal (z-score),[12],2.71
same,glycan array binding signal (z-score),[13],0.331
same,glycan array binding signal (z-score),[14],0.483
same,glycan array binding signal (z-score),[15],0.4
same,glycan array binding signal (z-score),[16],0.526
same,glycan array binding signal (z-score),[17],-0.766
same,glycan array binding signal (z-score),[18],0.66
same,glycan array binding signal (z-score),[19],0.047
same,glycan array binding signal (z-score),[20],-0.134
same,glycan array binding signal (z-score),[21],-0.594
same,glycan array binding signal (z-score),[22],0.306
same,glycan array binding signal (z-score),[23],0.896
same,glycan array binding signal (z-score),[24],-0.091
same,glycan array binding signal (z-score),[25],-0.134
same,glycan array binding signal (z-score),[26],-0.567
same,glycan array binding signal (z-score),[27],-0.423
same,glycan array binding signal (z-score),[28],-0.628
same,glycan array binding signal (z-score),[29],-0.392
same,glycan array binding signal (z-score),[30],-0.058
same,glycan array binding signal (z-score),[31],-0.679
same,glycan array binding signal (z-score),[32],-0.638
same,glycan array binding signal (z-score),[33],0.492
same,glycan array binding signal (z-score),[34],-0.27
same,glycan array binding signal (z-score),[35],0.473
same,glycan array binding signal (z-score),[36],0.418
same,glycan array binding signal (z-score),[37],1.38
same,glycan array binding signal (z-score),[38],2.08

# 2 entries drawn at random from those above:
binder,measurement,setting,value
"LlpA1 (Pseudomonas fluorescens), Q4KHC3 (protein) MGSSHHHHHHSSGLVPRGSHMAWIRYDFTDNGSSVLPARYYMAPNQYLQSPNKRFKLLFQADGNLALYDGAQLAWVADQNTPFTNVSKGNKKDPMMVFMNYGFVLDDPLRGRIWSTTPSDPTMGSREDASLRAFTQVQDDGNIVTVDTIPHWYAPNGRVFTPAVGAAMIIGGTTELVPGQFYSAGEHSLVFQGDGNLVVYGPNSSVIWATYTQNKGGVRCVMQEDGNLVIYAANNGVVWQSGTGGHPGATIRLQANGSFTIVTERPVWARFGYTPTIKPPRVFYPDHKWKTGSYTWNNVF",glycan array binding signal (z-score),[23],0.896
same,glycan array binding signal (z-score),[2],0.95
